# Measurements as given in PubChem BioAssay AID493014 (National Center for Advancing Translational Sciences (NCATS), 2011).
# The whole screen tested about 340,000 compounds, of which about 170 (0.05%) were called active. The shares of active, inactive and inconclusive entries below differ from those in the screen. Calls come from the whole dose curve; as a rule, active = well fitted inhibition curve with a large enough effect in the signal ratio, with a control signal flat (not every such curve was filed as active); inconclusive = small, poorly fitted or top-dose-only effect, or effect the other way, or a change in a side signal; inactive = flat fitted curve, though single readings scatter; the % refers to the signal ratio. A potency beside an inconclusive call is a rough fit, not a confirmed value.
# Test: qHTS Assay to Find Inhibitors of Chronic Active B-Cell Receptor Signaling;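 for activity change, negative = inhibition: plate controls were basal doxycycline-induced cells for no effect and cells given 10 µM MG132 for full effect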
# Conditions: ABC-DLBCL IkBa-CBG/CBR reporter, luminescence ratio (green luciferase fused to IkBa over red control in TMD8 lymphoma cells), 4 h; activity change, negative = inhibition: at 46.1 µM (top of the series)
# In short: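 Doxycycline induced both beetle luciferases in TMD8 lymphoma cells; IKK-driven degradation limits the IkappaBalpha-fused green signal, while red luminescence normalises for cell number and nonspecific effects. Compounds tested up to 46 uM, 4 hrs.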
# Potency is the fitted concentration of half-maximal effect.
Compound,"activity change, negative = inhibition",Potency
O=C(O)CCC(=O)N1CCN(c2nc(-c3ccccc3Cl)c3cc(Br)ccc3n2)CC1,inconclusive: -7.56%,–
Cc1cccc2nc(COc3ccc(-c4ccccc4)cc3)cn12,–,"inconclusive: 2.82 µM [rising, partial curve, poor fit]"
CCCNC(=O)C1CC(c2ccc(C(F)(F)F)cc2)=NO1 (configuration not stated),inactive,–
CNCCCNC(=O)c1ccc(/C=N/O)nc1,inactive,–
O=C(Nc1ccc(Cc2ccncc2)cc1)c1ccc(S(=O)(=O)N2CCCC2)cc1,inactive,–
NC(=O)c1ccccc1OCCOc1ccc(Br)cc1,–,"inconclusive: 25.1 µM [falling, partial curve]"
C/C(=N\NC(=O)c1ccccc1)c1ccccc1F,–,"inconclusive: 35.5 µM [rising, single point]"
O=C(NC1CCCC1)C(c1ccncc1)N(Cc1ccccc1)C(=O)c1ccc(-c2ccccc2)[nH]1 (configuration not stated),inconclusive: 0.999%,–
CCOC(=O)Cc1csc(NC(=O)C2CCCN(S(=O)(=O)c3cnc[nH]3)C2)n1 (configuration not stated),inconclusive: -1.01%,–
CCc1ccc(NC(=O)C(=O)NCCc2sc3nc(-c4ccc(OC)cc4)nn3c2C)cc1,inconclusive: -84.4%,–
C#CCN(C(=O)c1ccc(OC2CCN(C(=O)CCOC)CC2)cc1)C1CCCCC1,inactive,–
Cc1ccc(/C(O)=C/c2nc3ccccc3oc2=O)cc1,–,"inconclusive: 6.31 µM [falling, partial curve]"
COc1ccc(C2N(c3cc(Cl)ccc3OC)C(=O)C3CCCN32)c(OC)c1 (configuration not stated),inconclusive: -1.31%,–
Cc1ccc(C)c(OCC(=O)NC2CCCCCC2)c1,inactive,–
O=C(Nc1cccc(-c2ccc(N3CCCCC3)nn2)c1)c1ccco1,–,"inconclusive: 16.4 µM [falling, single point]"
COC(=O)c1[nH]c2ccc(F)cc2c1NC(=O)CCN1CCN(Cc2ccc3c(c2)OCO3)CC1,inconclusive: 0.26%,–
O=C(Cc1ccccc1)c1ccc(Cl)cc1,inconclusive: 17.3%,–
CCn1c(=NC(=O)CCS(=O)(=O)c2ccccc2)sc2cccc(OC)c21,inactive,–
Cc1csc(-c2cnn(-c3ccccc3)c2NC(=O)c2cccc(C(F)(F)F)c2)n1,–,"inconclusive: 29.1 µM [rising, single point]"
CN1C(=O)C(CC(=O)O)S/C1=N\N=C\c1ccc(O)cc1O (configuration not stated),inactive,–
O=C(Nc1cccc(NC(=O)c2ccccc2Cl)c1)c1cccs1,–,"inconclusive: 35.5 µM [falling, single point]"

Compound,"activity change, negative = inhibition",Potency
Cc1nonc1NC(=O)CSc1nc2c(C)cccc2cc1C#N,inconclusive: -16.8%,–
COc1cc(CNC2CCC(C)C2)cc(OC)c1 (configuration not stated),inactive,–
COc1cccc(NC(=O)c2ccccc2NS(C)(=O)=O)c1,inconclusive: -0.0306%,–
O=C(NNC(=S)NCc1ccccc1)c1ccc2c(c1)OCO2,inactive,–
C[C@@H]1C[C@H]2[C@@H]3CCC4=CC(=O)C=C[C@]4(C)[C@@]3(F)[C@@H](O)C[C@]2(C)[C@@]1(O)C(=O)COP(=O)(O)O,inconclusive: -16.8%,–
CNc1nc(C)c(C(=O)OCc2ccccc2)s1,inconclusive: -13.4%,–
Cc1cc(C)nc(/N=C(\N)Nc2ccc3c(c2)OCCO3)n1,inactive,–
Nc1ccc(Oc2ccc(F)cc2)nc1,inconclusive: 0.182%,–
COc1ccccc1CC(=O)N1CCN(c2cccc(Cl)c2)CC1,inactive,–
Cc1ccc2nc(C)cc(C(=O)N3CCCC(N4CCN(c5ccccc5C)CC4)C3)c2c1 (configuration not stated),inactive,–
O=C1NCCCCC1NS(=O)(=O)c1cccc(C(F)(F)F)c1 (configuration not stated),inconclusive: 1.33%,–
CCc1cccc(CC)c1NC(=O)COC(=O)c1ccccc1-c1nc2ccccc2s1,inconclusive: -0.224%,–
CCCCN(C(=O)c1oc2ccc(OCC)cc2c1C)c1c(N)n(CCCC)c(=O)[nH]c1=O,inconclusive: 16.9%,–
CCOC(=O)[C@H](CCc1ccccc1)N[C@@H](C)C(=O)N1C(C(=O)O)C[C@@H]2CCC[C@@H]21 (some centres not stated),inconclusive: 11.5%,–
O=C(CSc1nc2ccccc2s1)Nc1ccc(Cl)c(C(=O)O)c1,–,"inconclusive: 25.1 µM [falling, single point]"
O=C(N/N=C/c1cccs1)c1cccc(NC(=O)c2ccccc2Cl)c1,–,"inconclusive: 20.6 µM [falling, partial curve]"
O=C(CN1C(=O)NC2(CCCC2)C1=O)OCc1ccc(Cl)cc1Cl,inconclusive: 7.77%,–
Cc1cc2cc(CNC(=O)COc3ccccc3)ccc2n1C,inconclusive: 12.6%,–
Cc1ccc(S(=O)(=O)N(CC(=O)O)Cc2ccccc2F)cc1,inconclusive: 10.8%,–
CCC1(C)Cc2ccccc2-c2nc3n(c(=O)c21)CCCCC3 (configuration not stated),inconclusive: 12.8%,–
O=C(COC(=O)c1ccccc1Nc1cccc(C(F)(F)F)c1)NCc1ccco1,inconclusive: 9.51%,–

Compound,"activity change, negative = inhibition",Potency
Cc1ccc(N2C(=O)NC(NC(=O)C3CC3)(C(F)(F)F)C2=O)cc1 (configuration not stated),inconclusive: 5.34%,–
COC(=O)C1=C(C(C)=O)C(c2ccc(C)cc2)n2nnnc2N1 (configuration not stated),inactive,–
Cc1ccccc1-c1nc(P(=O)(c2ccccc2)c2ccccc2)c(N2CCOCC2)o1,inconclusive: -3.52%,–
CNC(=S)N1N=C(c2ccc(C)cc2)CC1c1ccc(OC)c(OC)c1 (configuration not stated),inconclusive: 7.97%,–
COc1cccc(OC)c1C(=O)NC(=S)Nc1ccc(S(=O)(=O)Nc2nccs2)cc1,inconclusive: -3.6%,–
CCCC(C)C(=O)Nc1nc(C)c(-c2csc(Nc3cc(OC)ccc3OC)n2)s1 (configuration not stated),–,"inconclusive: 2.24 µM [falling, partial curve, poor fit]"
OCCC1CN(CCCn2cccn2)CCN1C1CCCCC1 (configuration not stated),inactive,–
Cc1ccc(O)c(NC(=O)c2onc(C)c2Cl)c1,inconclusive: 0.053%,–
CC(=O)Nc1cccc(OCC(=O)Nc2ccccc2)c1,–,"inconclusive: 29.1 µM [falling, single point]"
NS(=O)(=O)c1ccc(CCNC(=O)COC(=O)C2CCN(c3ccc(C(F)(F)F)cn3)CC2)cc1,–,"inconclusive: 29.1 µM [falling, single point]"
CCCSc1nc(NCc2ccco2)c2c3c(sc2n1)COC(C)(CC)C3 (configuration not stated),inconclusive: 21%,–
O=C(c1cccc2nccnc12)N1CCCC(Nc2ccc(F)c(F)c2)C1 (configuration not stated),inconclusive: -3.05%,–
N#C/C(=C(/O)c1cccs1)c1nc2ccccc2[nH]1,–,"inconclusive: 2.51 µM [falling, partial curve, poor fit]"
CC(=O)C1=C(C)NC(SCC(=O)c2ccc(F)cc2)=C(C#N)C1CC(C)C (configuration not stated),inconclusive: -6.5%,–
Cc1cc(C)n2nc(C(=O)N/N=C/c3ccccc3C)nc2n1,–,"inconclusive: 22.4 µM [falling, partial curve]"
Cc1nn(-c2ccccc2)c(C)c1/C=N/NC(=O)c1cccs1,inactive,–
CCN(C(=O)C1CCCN(c2ncnc3c2nc2n3CCCCC2)C1)c1cccc(Cl)c1 (configuration not stated),inconclusive: -9.96%,–
CCCN1CCN(CCCNC(=O)Cn2nc(-c3ccc(Cl)cc3)ccc2=O)CC1,inconclusive: 16.1%,–
Cc1c(CCNC(=O)C(C)(C)C)sc2nc(-c3ccc(F)cc3)nn12,inconclusive: -8.6%,–
Cc1onc(-c2c(F)cccc2Cl)c1C(=O)Nc1nnc(C(F)(F)F)s1,inconclusive: 10.1%,–
O=C(NCc1ccco1)C1CCN(C(=O)c2cc3sccc3n2Cc2ccc(F)cc2)CC1,inconclusive: -0.566%,–

# Taken from the results shown (25 entries):
Compound,"activity change, negative = inhibition",Potency
Cc1cc2cc(CNC(=O)COc3ccccc3)ccc2n1C,inconclusive: 12.6%,–
Cc1ccc(S(=O)(=O)N(CC(=O)O)Cc2ccccc2F)cc1,inconclusive: 10.8%,–
CCC1(C)Cc2ccccc2-c2nc3n(c(=O)c21)CCCCC3 (configuration not stated),inconclusive: 12.8%,–
O=C(COC(=O)c1ccccc1Nc1cccc(C(F)(F)F)c1)NCc1ccco1,inconclusive: 9.51%,–
Cc1ccc(N2C(=O)NC(NC(=O)C3CC3)(C(F)(F)F)C2=O)cc1 (configuration not stated),inconclusive: 5.34%,–
COC(=O)C1=C(C(C)=O)C(c2ccc(C)cc2)n2nnnc2N1 (configuration not stated),inactive,–
Cc1ccccc1-c1nc(P(=O)(c2ccccc2)c2ccccc2)c(N2CCOCC2)o1,inconclusive: -3.52%,–
CNC(=S)N1N=C(c2ccc(C)cc2)CC1c1ccc(OC)c(OC)c1 (configuration not stated),inconclusive: 7.97%,–
COc1cccc(OC)c1C(=O)NC(=S)Nc1ccc(S(=O)(=O)Nc2nccs2)cc1,inconclusive: -3.6%,–
CCCC(C)C(=O)Nc1nc(C)c(-c2csc(Nc3cc(OC)ccc3OC)n2)s1 (configuration not stated),–,"inconclusive: 2.24 µM [falling, partial curve, poor fit]"
OCCC1CN(CCCn2cccn2)CCN1C1CCCCC1 (configuration not stated),inactive,–
Cc1ccc(O)c(NC(=O)c2onc(C)c2Cl)c1,inconclusive: 0.053%,–
CC(=O)Nc1cccc(OCC(=O)Nc2ccccc2)c1,–,"inconclusive: 29.1 µM [falling, single point]"
NS(=O)(=O)c1ccc(CCNC(=O)COC(=O)C2CCN(c3ccc(C(F)(F)F)cn3)CC2)cc1,–,"inconclusive: 29.1 µM [falling, single point]"
CCCSc1nc(NCc2ccco2)c2c3c(sc2n1)COC(C)(CC)C3 (configuration not stated),inconclusive: 21%,–
O=C(c1cccc2nccnc12)N1CCCC(Nc2ccc(F)c(F)c2)C1 (configuration not stated),inconclusive: -3.05%,–
N#C/C(=C(/O)c1cccs1)c1nc2ccccc2[nH]1,–,"inconclusive: 2.51 µM [falling, partial curve, poor fit]"
CC(=O)C1=C(C)NC(SCC(=O)c2ccc(F)cc2)=C(C#N)C1CC(C)C (configuration not stated),inconclusive: -6.5%,–
Cc1cc(C)n2nc(C(=O)N/N=C/c3ccccc3C)nc2n1,–,"inconclusive: 22.4 µM [falling, partial curve]"
Cc1nn(-c2ccccc2)c(C)c1/C=N/NC(=O)c1cccs1,inactive,–
CCN(C(=O)C1CCCN(c2ncnc3c2nc2n3CCCCC2)C1)c1cccc(Cl)c1 (configuration not stated),inconclusive: -9.96%,–
CCCN1CCN(CCCNC(=O)Cn2nc(-c3ccc(Cl)cc3)ccc2=O)CC1,inconclusive: 16.1%,–
Cc1c(CCNC(=O)C(C)(C)C)sc2nc(-c3ccc(F)cc3)nn12,inconclusive: -8.6%,–
Cc1onc(-c2c(F)cccc2Cl)c1C(=O)Nc1nnc(C(F)(F)F)s1,inconclusive: 10.1%,–
O=C(NCc1ccco1)C1CCN(C(=O)c2cc3sccc3n2Cc2ccc(F)cc2)CC1,inconclusive: -0.566%,–

# The list goes on:

Compound,"activity change, negative = inhibition",Potency
CC(=O)Nc1cccc(C(=O)NCc2ccc3c(c2)CCN3C(=O)c2ccc(F)cc2)c1,inactive,–
CC(=O)Nc1ccc(C(=O)Nc2cccc(S(=O)(=O)N(C)c3ccccc3)c2)cc1,inactive,–
CC(C)(C)[C@@H]1C=C(C(=O)N2CCN(Cc3ccc4c(c3)OCO4)CC2)O[C@H](OCc2ccc(CO)cc2)C1,inconclusive: 1.29%,–
CC(C)CNC(=S)NC(=O)c1ccc(F)cc1,inconclusive: 2.9%,–
O=C(O)c1cc(-c2ccc(Cl)s2)nc2ccccc12,inactive,–
COc1cc(C(C)=O)ccc1COc1ccc(C(=O)OCC(=O)NC2CCS(=O)(=O)C2)cc1OC (configuration not stated),–,"inconclusive: 32.6 µM [falling, partial curve, poor fit]"
COCCN(C(=O)C1CC1)c1nnc(-c2ccc(C)cc2)s1,inconclusive: 20.9%,–
CN(CC(=O)Nc1cccc(F)c1)C(=O)c1ccc2c(c1)CC(c1ccccc1)OC2=O (configuration not stated),inconclusive: -1%,–
OCCNc1c2ccccc2nc2c(F)c(F)c(F)c(F)c12,inconclusive: 8.42%,–
COc1ccc(OC)c(N(CC(=O)N2CCCC2)S(C)(=O)=O)c1,inconclusive: -0.251%,–
COc1cc(/C=C2/SC(=S)N(c3ccccc3)C2=O)ccc1Oc1nc(N2CCOCC2)nc(N2CCOCC2)n1,inconclusive: 6.33%,–
COc1cc2c(cc1OC)C(C1(O)CCCCC1)NCC2 (configuration not stated),inconclusive: -5.37%,–
O=C(CCCCn1c(=O)[nH]c2ccsc2c1=O)NCC1CCCO1 (configuration not stated),inconclusive: -0.627%,–
Cc1ccc(NCc2nnc(SCC(=O)NNC(=O)Cc3ccccc3)n2C)cc1,inactive,–
CCOc1ccc(CCNC(=O)CCn2ccc3cc(S(=O)(=O)N4CCCC4)ccc32)cc1,inactive,–
CS(=O)(=O)c1ccc(C(=O)Nc2nc(-c3ccco3)c(-c3ccco3)s2)cc1,inactive,–
CC(=O)Nc1cccc(-c2nc3ccc(NC(C)=O)cc3s2)c1,–,"inconclusive: 15.8 µM [falling, partial curve, poor fit]"
Cc1ccc(NC(=O)CC2S/C(=N/N=C/c3ccco3)NC2=O)cc1Cl (configuration not stated),inactive,–
COc1ccccc1-c1nnc2sc(-c3cc4ccccc4o3)nn12,inactive,–
